Article PMC2904373
No constants are given. Whether binding was seen depends on the method and setting. Binding seen in cells or lysates may run through a third protein. Some results given as binding are weak or reduced against the parent protein; the word gives no strength.

Molecular target: T1, p63 (human (endogenous in ME180)) (UniProt Q9H3D4)
T1 sequence: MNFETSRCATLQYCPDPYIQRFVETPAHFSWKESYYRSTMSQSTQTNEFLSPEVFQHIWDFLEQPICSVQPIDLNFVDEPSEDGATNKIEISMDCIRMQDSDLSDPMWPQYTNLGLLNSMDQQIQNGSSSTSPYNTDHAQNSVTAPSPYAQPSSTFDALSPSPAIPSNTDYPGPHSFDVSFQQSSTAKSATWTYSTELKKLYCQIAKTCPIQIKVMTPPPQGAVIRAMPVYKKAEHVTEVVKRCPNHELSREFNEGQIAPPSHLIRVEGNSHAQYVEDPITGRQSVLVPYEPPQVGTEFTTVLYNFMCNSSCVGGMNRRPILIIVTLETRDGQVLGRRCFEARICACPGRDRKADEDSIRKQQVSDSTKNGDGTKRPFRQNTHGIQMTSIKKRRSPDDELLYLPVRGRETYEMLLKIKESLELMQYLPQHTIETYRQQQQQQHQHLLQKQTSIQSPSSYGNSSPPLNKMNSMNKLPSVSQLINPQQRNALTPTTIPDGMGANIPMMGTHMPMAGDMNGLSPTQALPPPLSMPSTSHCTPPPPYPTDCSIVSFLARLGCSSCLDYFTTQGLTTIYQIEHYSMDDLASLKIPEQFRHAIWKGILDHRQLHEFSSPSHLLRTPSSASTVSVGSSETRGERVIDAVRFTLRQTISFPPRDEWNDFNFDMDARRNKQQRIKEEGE
Assay: co-IP; eluates of the first and second immunoprecipitations of sequential ChIP from ME180 chromatin (4A4 anti-p63 then 11C12 anti-p73, and the reverse); eluates probed by Western blot with anti-p73 or anti-p63

binding: binds
B1: p73 (protein, UniProt O15350 1-636)
chain: MAQSTATSPDGGTTFEHLWSSLEPDSTYFDLPQSSRGNNEVVGGTDSSMDVFHLEGMTTSVMAQFNLLSSTMDQMSSRAASASPYTPEHAASVPTHSPYAQPSSTFDTMSPAPVIPSNTDYPGPHHFEVTFQQSSTAKSATWTYSPLLKKLYCQIAKTCPIQIKVSTPPPPGTAIRAMPVYKKAEHVTDVVKRCPNHELGRDFNEGQSAPASHLIRVEGNNLSQYVDDPVTGRQSVVVPYEPPQVGTEFTTILYNFMCNSSCVGGMNRRPILIIITLEMRDGQVLGRRSFEGRICACPGRDRKADEDHYREQQALNESSAKNGAASKRAFKQSPPAVPALGAGVKKRRHGDEDTYYLQVRGRENFEILMKLKESLELMELVPQPLVDSYRQQQQLLQRPSHLQPPSYGPVLSPMNKVHGGMNKLPSVNQLVGQPPPHSSAATPNLGPVGPGMLNNHGHAVPANGEMSSSHSAQSMVSGSHCTPPPPYHADPSLVSFLTGLGCPNCIEYFTSQGLQSIYHLQNLTIEDLGALKIPEQYRMTIWRGLQDLKQGHDYSTAQQLLRSSNAATISIGGSGELQRQRVMEAVHFRVRHTITIPNRGGPGGGPDEWADFGFDLPDCKARKQPIKEEFTEAEIH
